From publication PMC7846557
Results are given in words; binding and its absence hold for the method and conditions named. Binding seen in cells or lysates may run through a third protein. Some results given as binding are weak or reduced against the parent protein; the word gives no strength.

Amino acid sequences for entries named in this document (tags omitted).
UniProt Q91WB2: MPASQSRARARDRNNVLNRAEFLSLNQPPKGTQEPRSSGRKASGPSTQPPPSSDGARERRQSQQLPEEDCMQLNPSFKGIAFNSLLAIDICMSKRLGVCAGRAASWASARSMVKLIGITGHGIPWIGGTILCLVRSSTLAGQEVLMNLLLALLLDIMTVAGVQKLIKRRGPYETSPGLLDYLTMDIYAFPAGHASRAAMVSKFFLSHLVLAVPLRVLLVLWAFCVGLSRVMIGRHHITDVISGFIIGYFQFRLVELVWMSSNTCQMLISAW
UniProt Q6DVA0: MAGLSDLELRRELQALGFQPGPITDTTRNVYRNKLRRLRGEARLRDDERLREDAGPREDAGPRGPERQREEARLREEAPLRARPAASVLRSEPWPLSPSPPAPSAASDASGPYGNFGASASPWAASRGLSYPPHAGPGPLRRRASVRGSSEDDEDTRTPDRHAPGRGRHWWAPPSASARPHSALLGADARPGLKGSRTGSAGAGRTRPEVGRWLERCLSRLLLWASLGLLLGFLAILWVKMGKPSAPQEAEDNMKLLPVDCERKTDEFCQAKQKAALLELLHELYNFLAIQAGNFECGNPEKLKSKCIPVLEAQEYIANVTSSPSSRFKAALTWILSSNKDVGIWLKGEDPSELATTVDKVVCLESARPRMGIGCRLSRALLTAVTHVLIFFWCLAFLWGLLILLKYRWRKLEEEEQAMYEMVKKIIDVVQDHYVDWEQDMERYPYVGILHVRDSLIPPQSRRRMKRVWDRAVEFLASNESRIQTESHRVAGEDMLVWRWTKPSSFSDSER

Target: Net39-3xFLAG-HA (mouse) (UniProt Q91WB2)
Assay: co-IP; C2C12 myotubes stably expressing Net39-3xFLAG-HA or empty vector; lysis in 50 mM Tris, 150 mM NaCl, 0.2% Triton; anti-FLAG M2 magnetic beads, wash with 350 mM NaCl, elution with 3xFLAG peptide; blot for endogenous LEMD2

- binding: binds
Substance: LEMD2 (from UniProt Q6DVA0 1-511)
